Reference: doi:10.1101/2025.03.19.644080
Where two headings read alike, the source gives them in different places. No constants are given. Whether binding was seen depends on the method and setting. Binding seen in cells or lysates may run through a third protein. Binding can be weak; no strength is given.

Key:
[1] = molecular target: Phloem Protein 2 (CsPP2), endogenous in cucumber (Cucumis sativus (endogenous in cucumber leaves)) (UniProt Q8LK13); experiment: co-IP
[2] = molecular target: Phloem Protein 2 (CsPP2), endogenous in cucumber (Cucumis sativus (endogenous in cucumber leaves)) (UniProt Q8LK13); experiment: co-IP; remark: listed apart in the source

“Tetraspanin 8 (CsTET8), endogenous in cucumber (from UniProt A0A0A0LTZ1)” was tested, and the binding [1] was “binds” and the binding [2] was “binds”.
